Out of some 390,000 compounds screened, about 610 (0.16%) were called active. This list was built around the results that the source calls inconclusive (neither active nor inactive); the mix of calls is not that of the screen. Calls come from the whole dose curve; as a rule, active = well fitted inhibition curve with a large enough effect; inconclusive = small, poorly fitted or top-dose-only effect, or effect the other way, or another doubt; inactive = no such curve, though single readings can be large or run the other way. Potencies beside an inconclusive call are fits to weak or partial responses and may not hold up.
Assay: Nrf2 qHTS screen for inhibitors: counterscreen for cytotoxicity
Settings: A549 ARE-Fluc cells, CellTiter-Fluor viability, 18-24 h; activity change, negative = cytotoxicity: at 46 µM (top of the series)
How it was run: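 Cytotoxicity counterscreen: CellTiter-Fluor fluorescence was measured in A549 ARE_Fluc cells after 18-24 h of compound exposure in a concentration series. The subsequent BugLite luminescent read reports ARE-luciferase activity.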
% is set by controls: 0 for no effect and ±100 for the full control effect; potency is the fitted concentration of half-maximal effect.

Compound | activity change, negative = cytotoxicity | Potency
Cc1ccc(CN(Cc2cc3cc(C)ccc3[nH]c2=O)Cc2nnnn2Cc2ccccc2)cc1 | inactive: -1.34% | –
C=Cc1ccc(CN2C(=O)N(c3ccc(C)c(C)c3)S(=O)(=O)c3ccccc32)cc1 | inactive: 0.536% | –
COc1ccccc1C(=O)Nc1nnc(SCc2cc(=O)c3ccccc3[nH]2)s1 | – | inconclusive: 29.1 µM [falling, partial curve, poor fit]
Cc1cccc(C)c1Nc1sc(C(=O)c2ccccc2)c(N)c1S(=O)(=O)c1ccccc1 | – | inconclusive: 4.61 µM [falling, partial curve, poor fit]
CCS(=O)(=O)c1ncc(Cl)c(C(=O)Nc2ccc(S(=O)(=O)N(C)c3ccccc3)cc2)n1 | – | inconclusive: 29.1 µM [falling, single point]
O=c1cc(Br)c(O)c(Br)cc1Br | – | inconclusive: 14.6 µM [falling, partial curve]
O=C(Nc1ccc2oc(-c3ccc4ccccc4c3)nc2c1)c1cccs1 | – | inconclusive: 29.1 µM [falling, single point]
Cc1ccccc1NS(=O)(=O)c1cc(C(=O)Nc2cccc(N(C)S(C)(=O)=O)c2)ccc1C | – | inconclusive: 29.1 µM [falling, single point]
COCCNC(=O)CSCc1nc(-c2ccc(SC)cc2)oc1C | – | inconclusive: 14.6 µM [falling, partial curve, poor fit]
Cc1ccc(NC2=C(NCCO)C(=O)c3ccccc3C2=O)cc1 | – | inconclusive: 29.1 µM [falling, single point]
Cc1cc2c(C)nc(N/N=C/c3ccc([N+](=O)[O-])cc3)nc2o1 | – | inconclusive: 20.6 µM [falling, partial curve, poor fit]
COc1ccccc1-c1cc2nc(C)c(CCC(=O)NCc3ccco3)c(C)n2n1 | – | inconclusive: 1.84 µM [activator, partial curve, poor fit]
CCCC/C(C)=N/NC(=O)C(=O)NCCc1ccccc1 | – | inconclusive: 23.1 µM [falling, partial curve, poor fit]
CC(C)Oc1ccc(/C=N/NC(N)=S)cc1 | inactive: -1.27% | –
Cc1nn(C(C)(C)C)c(OC(=O)c2cccs2)c1Sc1ccccc1 | – | inconclusive: 16.4 µM [falling, single point]
Cc1cccc(C(=O)/C=C2/c3ccccc3CC(C)(C)N2C)c1 | – | inconclusive: 0.0517 µM [falling, full curve]
CN(C)S(=O)(=O)c1cccc(NC(=O)Cc2ccc(-c3ccccc3)cc2)c1 | – | inconclusive: 29.1 µM [falling, single point]

As entered above:
Potency with `COc1ccccc1C(=O)Nc1nnc(SCc2cc(=O)c3ccccc3[nH]2)s1` is entered as inconclusive: 29.1 µM [falling, partial curve, poor fit]
Potency with `O=c1cc(Br)c(O)c(Br)cc1Br` is entered as inconclusive: 14.6 µM [falling, partial curve]

Reference: PubChem BioAssay AID504648 (National Center for Advancing Translational Sciences (NCATS), 2011)
